Data on one substance can be found in article PMC12196458, “An Alternative Mechanism of Glutamate Dehydrogenase Inhibition by EGCG: Promotion of Protein Degradation” (Pharmaceuticals, 2025).

By UniProt entry, the sequences of proteins in these tests, tags left out. Residues count along the entry.
UniProt P00366, residues 58-558: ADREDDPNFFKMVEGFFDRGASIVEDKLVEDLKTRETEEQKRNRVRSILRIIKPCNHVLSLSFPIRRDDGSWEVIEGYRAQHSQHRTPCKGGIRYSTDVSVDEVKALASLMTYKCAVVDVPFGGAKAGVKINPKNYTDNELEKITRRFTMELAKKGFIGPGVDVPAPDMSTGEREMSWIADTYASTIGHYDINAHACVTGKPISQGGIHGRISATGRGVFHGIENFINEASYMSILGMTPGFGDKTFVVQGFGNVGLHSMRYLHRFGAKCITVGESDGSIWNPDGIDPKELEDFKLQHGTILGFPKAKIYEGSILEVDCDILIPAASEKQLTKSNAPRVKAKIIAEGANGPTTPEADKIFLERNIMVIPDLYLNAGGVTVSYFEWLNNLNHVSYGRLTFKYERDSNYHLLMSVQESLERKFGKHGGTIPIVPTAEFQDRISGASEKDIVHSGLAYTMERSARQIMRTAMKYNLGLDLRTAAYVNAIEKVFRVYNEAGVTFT

The assay concerns the target bovine glutamate dehydrogenase (bovine) (UniProt P00366). Put plainly: condition: only with 5 mM EGCG or trypsin (20–500 μg/mL); native gel or EMSA; native-PAGE of 2.5 mg/mL bovine GDH with 5 mM EGCG or with trypsin (20–500 μg/mL); both purified.

No constants are given. Whether binding was seen depends on the method and setting.

As to “bovine glutamate dehydrogenase (from UniProt P00366 58-558) (enzyme)”, the binding entry was “no binding”.
